Results are given in words; binding and its absence hold for the method and conditions named. In cells and extracts the contact can be indirect. Binding can be weak; no strength is given.
Target: HA-TRIM28 (human) (UniProt Q13263)
Assay: co-IP; IP with co-expressed XAF1 (WT or ΔZF7), equal amount of ZNF313 input (Fig. 5h) or of HA-TRIM28 input (Fig. S5f); cells not given

Amino acid sequences for entries named in this document (tags omitted). A change or cut given only in a name is not applied to a line headed by its entry.
UniProt Q13263: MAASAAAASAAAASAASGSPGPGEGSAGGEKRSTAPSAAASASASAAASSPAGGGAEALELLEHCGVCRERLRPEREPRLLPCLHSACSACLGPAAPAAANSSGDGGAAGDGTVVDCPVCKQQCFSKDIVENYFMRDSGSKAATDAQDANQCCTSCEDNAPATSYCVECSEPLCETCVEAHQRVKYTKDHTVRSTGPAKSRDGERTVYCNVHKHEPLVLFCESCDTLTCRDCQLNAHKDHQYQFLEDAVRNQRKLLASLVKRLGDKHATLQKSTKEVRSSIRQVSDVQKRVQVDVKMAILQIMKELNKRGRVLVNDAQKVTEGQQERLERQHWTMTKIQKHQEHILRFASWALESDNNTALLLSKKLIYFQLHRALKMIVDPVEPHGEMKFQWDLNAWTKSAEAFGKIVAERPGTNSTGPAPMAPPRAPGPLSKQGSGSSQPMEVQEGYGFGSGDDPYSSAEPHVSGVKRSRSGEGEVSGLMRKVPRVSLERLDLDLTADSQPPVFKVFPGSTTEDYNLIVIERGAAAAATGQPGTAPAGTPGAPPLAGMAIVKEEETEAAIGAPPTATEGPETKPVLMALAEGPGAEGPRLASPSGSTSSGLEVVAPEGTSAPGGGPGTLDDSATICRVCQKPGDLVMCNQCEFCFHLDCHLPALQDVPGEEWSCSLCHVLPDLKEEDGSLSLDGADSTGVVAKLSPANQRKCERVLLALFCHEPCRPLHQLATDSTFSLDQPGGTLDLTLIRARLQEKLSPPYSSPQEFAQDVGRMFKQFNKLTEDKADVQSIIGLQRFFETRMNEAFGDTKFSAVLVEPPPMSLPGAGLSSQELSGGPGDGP
UniProt Q6GPH4: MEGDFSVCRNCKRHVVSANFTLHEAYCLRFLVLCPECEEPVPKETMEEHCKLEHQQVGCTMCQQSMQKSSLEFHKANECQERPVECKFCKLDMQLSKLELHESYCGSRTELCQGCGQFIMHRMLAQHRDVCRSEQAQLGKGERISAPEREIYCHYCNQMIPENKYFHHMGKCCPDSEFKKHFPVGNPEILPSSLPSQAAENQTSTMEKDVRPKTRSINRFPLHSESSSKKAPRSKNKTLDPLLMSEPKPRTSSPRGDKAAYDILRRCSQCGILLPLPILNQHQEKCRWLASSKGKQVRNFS

binding: binds
Substance: ΔZF7-XAF1 (from UniProt Q6GPH4)
